Literature values, collected in patent publication US20220265614A1, “TREATMENT COMPRISING FXR AGONISTS” (Novartis AG, priority 2019, published 2022).
For at least one compound, name, drawing or mass did not settle the structure.

System: NASH patients
Conditions: cited from earlier work

SMILES: CC[C@H]1[C@@H](O)[C@@H]2[C@H](CC[C@]3(C)[C@@H]([C@H](C)CCC(=O)O)CC[C@@H]23)[C@@]2(C)CC[C@@H](O)C[C@@H]12 [obeticholic acid, 6α-ethyl-chenodeoxycholic acid]
- NAFLD Activity Score (NAS): significant improvement
